# Inconclusive results, whose numbers are uncertain, are shown with a selection of clear calls. For part of these data: Potencies beside an inconclusive call are fits to weak or partial responses and may not hold up. The source made the active and inactive calls. Calls follow the shape of the dose curve; as a rule, active = well fitted curve in the direction sought with a large enough effect; inconclusive = small, poorly fitted or top-dose-only effect, or another doubt; inactive = no such curve, though single readings can be large; an effect the other way counts as inactive or inconclusive. Numbered stars: 1 amine (or outer) side, 2 acyl side, 3 side chain; on linkers, the order of the positions; unused ones are H or OH. Square brackets hold non-standard residues; d marks the D form. Peptide text beside a SMILES is read from it. X3 = CCCCCCCCCC(=O)[C@H](C(=O)[*:2])[C@@H]1CNC(=O)[C@@H](N[*:1])CS1
# Sequences of proteins named here, by UniProt entry; tags and fusion partners are left off. A change or cut given only in a name is not applied to a line headed by its entry.
# UniProt Q14994: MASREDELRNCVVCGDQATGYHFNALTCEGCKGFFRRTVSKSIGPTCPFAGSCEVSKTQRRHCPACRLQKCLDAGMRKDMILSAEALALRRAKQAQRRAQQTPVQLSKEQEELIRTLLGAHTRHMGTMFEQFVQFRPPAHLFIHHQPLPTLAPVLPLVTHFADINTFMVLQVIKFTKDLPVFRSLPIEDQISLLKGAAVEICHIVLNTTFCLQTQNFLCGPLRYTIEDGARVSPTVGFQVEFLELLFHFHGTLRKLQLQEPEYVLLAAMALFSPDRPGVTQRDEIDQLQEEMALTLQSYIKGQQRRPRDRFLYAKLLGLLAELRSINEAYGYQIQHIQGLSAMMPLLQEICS
# Assays:
# [1] = biological target: Nuclear receptor subfamily 1 group I member 3 (Homo sapiens) (UniProt Q14994); assay: qHTS for Constitutive Androstane Receptor (CAR) Agonist screened against the NCATS CANVASS Library (AID 1347373);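 also: every well also contained 1.5 µM PK11195 alongside the test compound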; also: potency is read from the fitted curve at half-maximal effect
# In short: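 Agonist mode with 1.5uM PK11195 present: compounds for 24hr on HepG2-hCAR-CYP2B6 cells. CellTiter-Fluor fluorescence (ex 405, em 540 nm) gives viability; ONE-Glo luminescence reports CAR activation.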
# [2] = qHTS for Hypoxia signaling pathway (HIF-1) agonists against the NCATS CANVASS Library (AID 1347375); also: potency is read from the fitted curve at half-maximal effect
# In short: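 Beta-lactamase reporter under HRE control in ME-180 cells; compounds (11-point qHTS series) added after 5 hrs plating, then 17 hrs at 37C. FRET substrate read after 2 hr; same-well CellTiter-Glo luminescence gave viability and normalization.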
# [3] = COV-362 Cancer Cell Toxicity qHTS against the NCATS CANVASS Library (AID 1347352); also: potency is read from the fitted curve at half-maximal effect; as to activity change, negative = cytotoxicity: % is scaled to controls: 0 for no effect and ±100 for the full control effect
# In short: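 Toxicity was measured as CellTiter-Glo luminescence after 72 h exposure to an 11-point compound series. Compound was added to 1000 cells/well 4 h after seeding.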
# [4] = tested on: NAD(P)H diaphorase (Clostridium kluyveri); assay: Diaphorse counterscreen qHTS: Assay Interference Panel against the NCATS CANVASS Library (AID 1347362); also: potency is read from the fitted curve at half-maximal effect; as to activity change, negative = inhibition: 0% is about no effect
# In short: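 Clostridium kluyveri diaphorase in PBS with 0.01% Tween-20 was preincubated 15 min at room temperature in the dark with compounds (11-point series). Resorufin fluorescence (ex 525/20, em 598/25) was read 5 min after adding resazurin/NADH.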
# [5] = KB-3-1 Cancer Cell Toxicity qHTS against the NCATS CANVASS Library (AID 1347366); also: potency is read from the fitted curve at half-maximal effect; nearly all actives have a fitted effect of over 75% in size
# In short: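 Luminescence from CellTiter-Glo (10 min, room temperature) measured KB-3-1 viability after 72 hr compound exposure at 37C. Cells were seeded at 500/well and tested in an 11-point series.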
# [6] = MCF7 Cancer Cell Toxicity qHTS against the NCATS CANVASS Library (AID 1347369); details: activity change, negative = cytotoxicity: at 46 µM (top of the series); also: potency is read from the fitted curve at half-maximal effect
# In short: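 Cells seeded at 500/well, then compound pinned. Plates incubated 72 hr at 37C, 5% CO2. CellTiterGlo added; luminescence read.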
# [7] = biological target: Nuclear receptor subfamily 1 group I member 3 (Homo sapiens) (UniProt Q14994); assay: qHTS for Constitutive Androstane Receptor (CAR) Antagonist screened against the NCATS CANVASS Library (AID 1347372); also: potency is read from the fitted curve at half-maximal effect
# In short: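 Cells were seeded and left 4hr to attach, then received compound at 11 concentrations and 50 nM CITCO. Following 24hr incubation, fluorescence viability and luciferase luminescence were read sequentially.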
# [8] = Vero-766 cells viability qHTS against the NCATS CANVASS Library: Counterscreen for Zika virus inhibition assay (AID 1347394); details: Vero 766 viability, CellTiter-Glo luminescence, 72 h; activity change, negative = cytotoxic: at 46.1 µM (top of the series); also: nearly all actives have a fitted effect of over 60% in size; also: potency is read from the fitted curve at half-maximal effect; as to activity change, negative = cytotoxic: % is scaled to controls: 0 for no effect and ±100 for the full control effect
# In short: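 Vero 766, no virus; 1000 cells/well; o/n attach; cpd 11-pt; 72 h, 37C, 5% CO2; CTG luminescence; cell-free media wells = 100% inhibition.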
# [9] = SDT Cancer Cell Toxicity qHTS against the NCATS CANVASS Library (AID 1347365); also: nearly all actives have a fitted effect of over 60% in size; also: potency is read from the fitted curve at half-maximal effect;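 as to activity change, negative = cytotoxicity: SDT canine glioma cells 500 per well in 1536 well plates; % is scaled to controls: 0 for no effect and ±100 for the full control effect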
# In short: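 Cytotoxicity taken from CellTiterGlo ATP luminescence after 72 hr at 37C, 5% CO2. Canine glioma line SDT, 500 cells/well, treated at 11 concentrations; bortezomib dose series as control.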
# [10] = qHTS for ATAD5 Antagonist screened against the NCATS CANVASS Library (AID 1347370); also: nearly all actives have a fitted effect of over 65% in size; also: potency is read from the fitted curve at half-maximal effect;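 as to activity change, negative = inhibition: HEK293T cells carrying an ATAD5 luciferase reporter co-treated with 10 µM 5-fluorouridine; % is scaled to controls: 0 for no effect and ±100 for the full control effect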
# In short: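 Compounds (11-point) co-dosed with 10 µM 5-FUrd for 16 h at 37 °C onto HEK293T-ATAD5 luciferase reporter cells. Viability measured by CellTiter-Fluor fluorescence, then ATAD5 reporter signal by luminescence.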
# [11] = J3T Cancer Cell Toxicity qHTS against the NCATS CANVASS Library (AID 1347371); also: potency is read from the fitted curve at half-maximal effect
# In short: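 Cytotoxicity read as CellTiterGlo ATP luminescence after 72 h incubation (37C, 5% CO2) of J3T canine glioma cells (500/well) with an 11-point compound series.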
# [12] = qHTS assay for small molecule disruptors of mitochondrial membrane potential screened against the NCATS CANVASS Library (AID 1347389); also: nearly all actives have a fitted effect of over 60% in size; also: potency is read from the fitted curve at half-maximal effect
# In short: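 Mitochondrial membrane potential in HepG2: 1 h compound treatment (11-point concentration series), 30 min m-MPI dye at 37C, then dual fluorescence of J-aggregates (ex 540/em 590) and monomers (ex 490/em 535); lower red/green ratio indicates depolarization.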
# [13] = HEK293 18hr Apoptosis Induction qHTS against the NCATS CANVASS Library (AID 1347357); also: potency is read from the fitted curve at half-maximal effect
# In short: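 Cells seeded at 500/well in DMEM + 10% FBS. Compounds pinned, 11 concentrations. 18 h, 37 degrees C/5% CO2. Caspase-Glo 3/7 added, 15 min RT dark, luminescence read.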
# [14] = qHTS for Inflammasome Signaling Inhibitors: IL-1-beta AlphaLISA screen against the NCATS CANVASS Library (AID 1347379);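 also: human THP-1 cells primed with LPS then triggered with ATP; secreted IL-1B measured as AlphaLISA emission at 615 nm; potency is read from the fitted curve at half-maximal effect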
# In short: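 Secreted IL-1B from human THP-1 cells quantified by AlphaLISA 16 hr after compound addition (final up to 57.5 uM). A 1 hr compound pretreatment preceded inflammasome activation with 250 ng/mL LPS plus 1.25 mM ATP (final).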
# [15] = Redox Reaction Profiling qHTS: Assay Interference Panel against the NCATS CANVASS Library (AID 1347401); also: potency is read from the fitted curve at half-maximal effect
# In short: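 Quantitative HTS over an 11-point series was run in HEPES pH 7.3 with 50 mM NaCl, 200 uM DTT and 5 uM resazurin. Initial and 15-min resorufin fluorescence readings were taken.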
# [16] = qHTS for H2AX Agonists against the NCATS CANVASS Library (AID 1347378);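 also: phospho-H2AX S139 level in CHO-K1 lysates by TR-FRET emission ratio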; also: potency is read from the fitted curve at half-maximal effect
# In short: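 CHO-K1, 1000 cells/well, o/n 37C; cpd several conc, 3 hr 37C, 0.76% DMSO; lyse 30 min RT; cryptate anti-pH2AX(S139) + d2 anti-H2AX, 24 hr RT; HTRF 665/620.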
# [17] = G06 Cancer Cell Toxicity qHTS against the NCATS CANVASS Library (AID 1347368); also: potency is read from the fitted curve at half-maximal effect; nearly all actives have a fitted effect of over 60% in size
# In short: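 Viability measured by CellTiterGlo ATP luminescence after 72 hr at 37C, 5% CO2. Canine G06 glioma cells plated at 500/well. Compounds tested as 11-point qHTS titrations.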
# [18] = qHTS for activators of dead-cell proteases activity screened against the NCATS CANVASS Library (AID 1347392);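 also: luminescence from protease leaking out of membrane-damaged cells cleaving impermeant substrate; potency is read from the fitted curve at half-maximal effect; rising signal means more cytotoxicity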
# In short: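 Cytotoxicity in HepG2 cells was assessed by released protease cleaving AAF-aminoluciferin, with luminescence as signal. Exposure lasted 5 h at 37C across an 11-point series.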
# [19] = DH5-alpha competent E. coli microbial cell viability qHTS against the NCATS CANVASS Library (AID 1347377); details: viability signal change, negative = cytotoxic: at 46.1 µM (top of the series)
# In short: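 Bacterial viability as ATP-dependent luminescence (BacTiter-Glo), read after overnight 37 °C exposure of DH5-alpha competent E. coli to compounds in 11-point titration.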
smiles,measurement,setting,value
C[C@@]1(CCC(=O)Nc2c(O)ccc(C(=O)O)c2O)C(=O)C=C[C@]23C[C@H]4C[C@H](O[C@@]4(C)C2)C31 (some centres undefined),Potency,[1],inactive
same,Potency,[2],inactive
C=C(C)C(=O)O[C@H]1C[C@H](C)[C@@H](OC(C)=O)CC[C@@]2(C)O[C@@H]2[C@H]2OC(=O)C(COC(C)=O)=C12,Potency,[3],inactive
same,Potency,[4],inactive
same,Potency,[5],"inconclusive: 29.6 µM [cytotoxic, single point]"
same,Potency,[6],active: 23.4 µM
same,Potency,[7],"inconclusive: 37.1 µM [inhibitor, single point]"
same,Potency,[2],"inconclusive: 29.8 µM [activator, partial curve, poor fit]"
same,Potency,[8],"inconclusive: 33.1 µM [cytotoxic, single point]"
C=C[C@]1(C)CC[C@@H]([C@H](C)C(=O)/C=C/C(C)(C)O)O1,Potency,[9],"inconclusive: 20.9 µM [cytotoxic, single point]"
same,Potency,[10],"inconclusive: 23.4 µM [inhibitor, partial curve, poor fit]"
same,Potency,[11],"inconclusive: 33.2 µM [cytotoxic, single point]"
same,Potency,[1],"inconclusive: 18.6 µM [activator, partial curve]"
Oc1ccc(/C=C2/c3cc(O)cc(O)c3C(c3ccc(O)cc3)[C@H]2c2cc(O)cc(O)c2)cc1 (some centres undefined),Potency,[5],"inconclusive: 37.2 µM [cytotoxic, partial curve, poor fit]"
same,Potency,[10],inactive
same,Potency,[12],inactive
CC(C)=CCC[C@]1(C)[C@H]2CC(=O)[C@@]3(CO3)[C@@H]1C2,Potency,[9],inactive
same,Potency,[12],inactive
same,Potency,[8],inactive
CC(C)=CCC[C@@H](C)[C@@H]1CC[C@@]2(C)C[C@H]3C(C)=CC(=O)[C@@H]3/C(C=O)=C\C[C@H]12,Potency,[3],active: 11.8 µM
same,Potency,[13],"inconclusive: 33.2 µM [activator, single point]"
same,Potency,[9],"inconclusive: 26.4 µM [cytotoxic, single point]"
same,Potency,[6],"inconclusive: 37 µM [cytotoxic, single point]"
same,Potency,[10],"inconclusive: 16.6 µM [inhibitor, partial curve]"
same,Potency,[11],"inconclusive: 33.2 µM [cytotoxic, single point]"
same,Potency,[7],"inconclusive: 37.1 µM [inhibitor, single point]"
same,Potency,[2],"inconclusive: 29.8 µM [activator, single point]"
same,Potency,[14],active: 17.2 µM
same,Potency,[15],"inconclusive: 0.541 µM [activator, single point]"
O=c1cc(-c2ccc(O)c(O)c2)oc2cc(O[C@@H]3O[C@H](CO)[C@@H](O)[C@H](O)[C@H]3O)cc(O)c12,Potency,[4],"inconclusive: 10.8 µM [inhibitor, partial curve]"
same,Potency,[9],"inconclusive: 7.43 µM [cytotoxic, full curve]"
same,Potency,[5],"inconclusive: 29.6 µM [cytotoxic, single point]"
same,Potency,[8],"inconclusive: 13.2 µM [cytotoxic, partial curve, poor fit]"
C[C@@]12CCC[C@@](C)(C(=O)O)[C@H]1C[C@@H](O)[C@@]13C[C@@H](CC[C@@H]21)[C@](C)(O)C3,Potency,[11],inactive
same,Potency,[16],inactive
C/C=C1/C2=CCCN3C(=O)O[C@H]([C@H]1O)[C@H]23,Potency,[13],inactive
same,Potency,[4],inactive
same,Potency,[6],"inconclusive: 37 µM [cytotoxic, single point]"
same,Potency,[7],"inconclusive: 18.6 µM [inhibitor, partial curve]"
same,Potency,[16],"inconclusive: 34.4 µM [activator, partial curve]"
C=C1[C@@]2(C)CC3C4(C)CCC(O)C(C)(C)C4CCC3(C)[C@]1(C(=O)OC)C(=O)C(C)(O)C2=O (some centres undefined),Potency,[4],inactive
COc1ccc([C@@H]2c3cc(OC)c(OC)cc3C(=O)[C@H](C)C2C)cc1OC (some centres undefined),outcome,[9],inactive [at 9.19 µM]
same,"activity change, negative = inhibition",[10],inactive: -23.2% [at 9.19 µM]
C[C@@]12C[C@@H](C[C@@H]3C(=O)O[C@@H](c4ccoc4)[C@H](OC(=O)c4ccccc4)[C@@H]31)OC2=O,"activity change, negative = cytotoxic",[8],inconclusive: -35.3% [cytotoxic]
"CC[C@@H](C)[C@H]1NC(=O)C(CC(C)C)NC(=O)[C@@H](CC(C)C)NC(=O)[C@H](Cc2c[nH]c3ccccc23)NC(=O)CNC(=O)[C@@H](CC(N)=O)NC1=O (stereo partly drawn) (HELM PEPTIDE1{G.W.[dL].[CC(C)CC(N[*:1])C(=O)[*:2]].[dI].[dN]}$PEPTIDE1,PEPTIDE1,1:R1-6:R2$$$V2.0)",Potency,[3],inactive
same,Potency,[5],"inconclusive: 33.2 µM [cytotoxic, single point]"
same,Potency,[17],"inconclusive: 33.2 µM [cytotoxic, single point]"
same,Potency,[6],"inconclusive: 11.7 µM [cytotoxic, single point]"
same,Potency,[11],"inconclusive: 37.2 µM [cytotoxic, single point]"
same,Potency,[12],"inconclusive: 37.1 µM [inhibitor, partial curve, poor fit]"
same,Potency,[18],"inconclusive: 33.1 µM [activator, single point]"
CCCCCCCCCC(=O)[C@@H]1C(=O)N[C@@H](CC(C)C)C(=O)N[C@H](C)C(=O)N2CCC[C@H]2C(=O)N[C@@H](C(C)C)C(=O)N[C@H]2CS[C@H]1CNC2=O (cyclo(L[dA]PV[X3])),Potency,[4],"inconclusive: 30.5 µM [inhibitor, partial curve, poor fit]"
same,Potency,[9],"inconclusive: 16.6 µM [cytotoxic, partial curve]"
same,Potency,[19],"inconclusive: 3.71 µM [cytotoxic, full curve, poor fit]"

# An excerpt from further up:
smiles,measurement,setting,value
COc1ccc([C@@H]2c3cc(OC)c(OC)cc3C(=O)[C@H](C)C2C)cc1OC (some centres undefined),"activity change, negative = inhibition",[10],inactive: -23.2% [at 9.19 µM]
C[C@@]12C[C@@H](C[C@@H]3C(=O)O[C@@H](c4ccoc4)[C@H](OC(=O)c4ccccc4)[C@@H]31)OC2=O,"activity change, negative = cytotoxic",[8],inconclusive: -35.3% [cytotoxic]

# From PubChem BioAssay (NCATS)
